The subject of the assay is P388 leukemia ip, CD2F1 mice, survival T/C. Briefly: NCI In Vivo Anticancer Drug Screen. Data for tumor model P388 Leukemia (intraperitoneal) in CD2F1 (CDF1) mice. The settings on record: T/C endpoint: median survival time, higher T/C = longer survival.
The mark [1] stands for this setting: dose: 50.0 mg/kg/injection, schedule: Q01DX009 (ip), vehicle: Klucel (hydroxypropylcellulose) (HPC).
[2] abbreviates: dose: 100.0 mg/kg/injection, schedule: Q01DX009 (ip), vehicle: Klucel (hydroxypropylcellulose) (HPC).
Setting [3] is: dose: 200.0 mg/kg/injection, schedule: Q01DX009 (ip), vehicle: Klucel (hydroxypropylcellulose) (HPC).
The mark [4] stands for this setting: dose: 200.0 mg/kg/injection, schedule: Q01DX005 (ip), vehicle: Klucel (hydroxypropylcellulose) (HPC).
[5] abbreviates: dose: 100.0 mg/kg/injection, schedule: Q01DX005 (ip), vehicle: saline with Tween-80.
Setting [6] is: dose: 200.0 mg/kg/injection, schedule: Q01DX005 (ip), vehicle: saline with Tween-80.
Setting [7] is: dose: 50.0 mg/kg/injection, schedule: Q01DX009 (ip), vehicle: saline.
Setting [8] is: dose: 50.0 mg/kg/injection, schedule: Q01DX009 (ip), vehicle: saline with Tween-80.
Where [9] appears, read: dose: 200.0 mg/kg/injection, schedule: Q01DX009 (ip), vehicle: saline with Tween-80.

Each structure is given as a SMILES string. The list is a part of this screen's results and no random one: it gathers tests that were run many times, whatever their T/C, doses with no T/C, and many T/C values between a quarter and a half above the control. Other doses and runs of a compound stand elsewhere. T/C: endpoint of the treated group in % of that of the vehicle group. Some doses have a count of surviving animals in place of a T/C: the source holds a T/C of zero for them, seemingly a mark for toxic or unscored doses. Some doses without a T/C left all or most animals alive at the check, yet need not have been tolerated: survival well below the control is almost never listed, so the zero probably covers shortened survival too. Counts of survivors are from the toxicity check (mostly the fifth day) where no day follows; animals may have died later. Schedules are NCI's codes, taken here to give the interval after Q, in days (D) or hours (H), and the number of doses after X. Signs of the kind (2×) say how often a value occurs here. Some entries hold several experiments; the results are listed from low to high. Where survival is the endpoint, the PubChem record calls one and a half times the control and up active, and a quarter to a half above the control has no call in these data; cut-offs in other NCI protocols can differ.

As for `Cc1nn(C)c2nc(=O)n(C)c(=O)c-2[n+]1[O-]`, the survivor count is 0 of 6 (dose: 0.78 mg/kg/injection, schedule: Q01DX001 (ip), vehicle: Klucel (hydroxypropylcellulose) (HPC)); 0 of 6 (dose: 1.56 mg/kg/injection, schedule: Q01DX001 (ip), vehicle: Klucel (hydroxypropylcellulose) (HPC)); 0 of 6 (2×) (dose: 3.12 mg/kg/injection, schedule: Q01DX001 (ip), vehicle: Klucel (hydroxypropylcellulose) (HPC)); 0 of 6 (dose: 6.25 mg/kg/injection, schedule: Q01DX001 (ip), vehicle: Klucel (hydroxypropylcellulose) (HPC)); 0 of 6 (dose: 12.5 mg/kg/injection, schedule: Q01DX001 (ip), vehicle: Klucel (hydroxypropylcellulose) (HPC)); 0 of 6 (dose: 12.5 mg/kg/injection, schedule: Q01DX001 (ip), vehicle: saline). Further, the survivor count runs as follows: (dose: 25.0 mg/kg/injection, schedule: Q01DX001 (ip), vehicle: saline) 0 of 6; (dose: 50.0 mg/kg/injection, schedule: Q01DX001 (ip), vehicle: saline) 0 of 6.
Take `COCC(=O)Nc1ncc([N+](=O)[O-])s1`: the survivor count under setting [1] is given as 6 of 6, the survivor count under setting [2] was 6 of 6 and the survivor count under setting [3] is reported as 6 of 6.
For `Cc1c([C@H](C)[C@@H]2NC[C@@H](C)C[C@H]2O)ccc2c1C[C@H]1[C@H]2CC=C2C[C@@H](O)CC[C@@]21C`, the survivor count runs as follows: (dose: 6.0 mg/kg/injection, schedule: Q01DX009 (ip), vehicle: saline with Tween-80) 0 of 6 and 3 of 6; (dose: 12.0 mg/kg/injection, schedule: Q01DX009 (ip), vehicle: saline with Tween-80) 0 of 6.
Regarding `[CH3][Sn]([CH3])([S]CCS(=O)(=O)O)[S]CCS(=O)(=O)O`, the T/C (dose: 60.0 mg/kg/injection, schedule: Q01DX005 (ip), vehicle: saline) was 125 % of control. Further, the survivor count (dose: 120.0 mg/kg/injection, schedule: Q01DX005 (ip), vehicle: saline) is recorded as 3 of 6 and the survivor count (dose: 240.0 mg/kg/injection, schedule: Q01DX005 (ip), vehicle: saline) is 0 of 6.
In the case of `CC(CCl)N(CCCl)Cc1cccc(Nc2ncnc3nc[nH]c23)c1` (stereo not drawn), the T/C reads like this: (dose: 0.2 mg/kg/injection, schedule: Q01DX009 (ip), vehicle: saline) 127 % of control; (dose: 0.3 mg/kg/injection, schedule: Q01DX009 (ip), vehicle: saline) 127 % of control; (dose: 0.45 mg/kg/injection, schedule: Q01DX009 (ip), vehicle: saline) 145 % of control; (dose: 0.5 mg/kg/injection, schedule: Q04DX003 (ip), vehicle: saline) 127 % of control.
`CCN(CC)CCNC(=O)c1nn(-c2ccccc2)c2c1CCCc1ccccc1-2`: the survivor count (dose: 200.0 mg/kg/injection, schedule: Q04DX003 (ip), vehicle: Klucel (hydroxypropylcellulose) (HPC)) was 2 of 6 and the survivor count (dose: 400.0 mg/kg/injection, schedule: Q04DX003 (ip), vehicle: Klucel (hydroxypropylcellulose) (HPC)) was 0 of 6.
On to `CC(C)CCOCCOCCCN1C(=O)C2C3C=CC(C3)C2C1=O` (stereo not drawn), for which, under setting [4], the survivor count is 3 of 5.
As for `Cc1ccc(Cl)cc1S`, under “dose: 200.0 mg/kg/injection, schedule: Q04DX003 (ip), vehicle: saline”, the survivor count is 6 of 6.
Turning to `O=C1C=CC(=O)C2=C1CCOC2c1ccccc1` (stereo not drawn), the survivor count is, setting by setting: under setting [5], 1 of 6; under setting [6], 0 of 6.
For `CC(C)NCC(O)c1ccccc1Cl` (stereo not drawn), the survivor count was 4 of 6 under setting [5] and 0 of 6 under setting [6].
Regarding `CC(C)(C)c1cc(C[N+](C)(C)C)c(O)c(C(C)(C)C)c1`, the survivor count (dose: 100.0 mg/kg/injection, schedule: Q01DX005 (ip), vehicle: distilled water + alcohol) was 0 of 5 and the survivor count (dose: 200.0 mg/kg/injection, schedule: Q01DX005 (ip), vehicle: distilled water + alcohol) is recorded as 0 of 5.
For `FC(F)(F)C1(C(F)(F)F)O[Si]2(OC(C(F)(F)F)(C(F)(F)F)c3ccccc32)c2ccccc21` (tested in a mixture with another compound), the survivor count is recorded as 3 of 6 (dose: 200.0 mg/kg/injection, schedule: Q04DX002 (ip), vehicle: Klucel (hydroxypropylcellulose) (HPC)) and 0 of 6 (dose: 400.0 mg/kg/injection, schedule: Q04DX002 (ip), vehicle: Klucel (hydroxypropylcellulose) (HPC)).
As for `S=P1(c2ccccc2)C=C(N2CCCC2)CC1` (stereo not drawn), under setting [7], the survivor count is 6 of 6.
On to `CSc1nnc(CCC(=O)Nc2ccc(Cl)cc2Cl)o1`, for which the survivor count (dose: 240.0 mg/kg/injection, schedule: Q01DX005 (ip), vehicle: saline with Tween-80) is recorded as 3 of 6.
For `Nc1cccnc1C1OCCO1`, under “dose: 200.0 mg/kg/injection, schedule: Q01DX009 (ip), vehicle: other”, the survivor count is reported as 0 of 6.
As for `COC1=CC(=O)C(C2(OC(C)C)OC(=O)C(Cl)=C2Cl)=CC1=O` (stereo not drawn), the survivor count under setting [6] is given as 2 of 6.
`CCCC1OC(/C=C/c2ccccc2)OCC1CC` (stereo not drawn): the T/C (dose: 400.0 mg/kg/injection, schedule: Q01DX009 (ip), vehicle: saline with Tween-80) was 125 % of control.
On to `Cc1ccc(C(=O)CC[N+](C)(C)C)cc1`, for which the survivor count is recorded as 3 of 6 under setting [7]; 0 of 6 (dose: 100.0 mg/kg/injection, schedule: Q01DX009 (ip), vehicle: saline); 0 of 6 (dose: 200.0 mg/kg/injection, schedule: Q01DX009 (ip), vehicle: saline).
In the case of `CCCCOC(=O)NP1(=O)NCc2ccccc2CN1`, the survivor count (dose: 100.0 mg/kg/injection, schedule: Q01DX005 (ip), vehicle: Klucel (hydroxypropylcellulose) (HPC)) is 5 of 5.
`CC(=O)N1c2ccccc2Sc2ccc3ccc(C(=O)CCl)cc3c21`: the T/C under setting [8] is 133 % of control. Further, the survivor count under setting [9] was 4 of 6.
Consider `COC1=C(OC)C(=O)C(SCCCCCCC2CCCCC2)=CC1=O`, for which the survivor count by setting is: (dose: 2.0 mg/kg/injection, schedule: Q01DX009 (ip), vehicle: Klucel (hydroxypropylcellulose) (HPC)) 6 of 6; (dose: 4.0 mg/kg/injection, schedule: Q01DX009 (ip), vehicle: Klucel (hydroxypropylcellulose) (HPC)) 6 of 6; (dose: 8.0 mg/kg/injection, schedule: Q01DX009 (ip), vehicle: Klucel (hydroxypropylcellulose) (HPC)) 6 of 6.
As to `O=C(O)/C=C\S(=O)(=O)O`, the survivor count is recorded as 2 of 6 (dose: 100.0 mg/kg/injection, schedule: Q04DX002 (ip), vehicle: saline); 0 of 6 (dose: 200.0 mg/kg/injection, schedule: Q04DX002 (ip), vehicle: saline); 0 of 6 (dose: 400.0 mg/kg/injection, schedule: Q04DX002 (ip), vehicle: saline).
`NC(Cc1ccc(O)cc1)C(=O)N/N=C/c1ccccc1Cl` (stereo not drawn): the survivor count under setting [4] was 5 of 5.
Regarding `CCOC(=O)Nc1ccc2nc(N3CCCCC3)sc2c1`, the survivor count under setting [9] is on record as 6 of 6.
As to `ClC1=C(Cl)N(C2=NCCC2)CC1`, the survivor count under setting [1] is reported as 0 of 6, the survivor count under setting [2] is on record as 0 of 6 and the survivor count under setting [3] is recorded as 0 of 6.
On to `COC1/C=C/OC2(C)Oc3c(C)c(O)c4c(O)c(c(/C=N/N5C(C)CN(Cc6cccc(C#N)c6)CC5C)c(O)c4c3C2=O)NC(=O)/C(C)=C\C=C\C(C)C(O)C(C)C(O)C(C)C(OC(C)=O)C1C` (stereo not drawn), for which the survivor count is, setting by setting: (dose: 100.0 mg/kg/injection, schedule: Q01DX009 (ip), vehicle: saline with Tween-80) 5 of 6; under setting [9], 2 of 6.
`S=C1N(c2ccc(Cl)cc2)C2=C(N=Nc3ccccc3)C(=Nc3ccccc3S2)N1c1ccccn1`: under setting [6], the survivor count is given as 0 of 6.
In the case of `Cc1cc(C2=NCC(C)S2)ccc1OCCSCCOc1ccc(C2=NCC(C)S2)cc1C` (stereo not drawn), the survivor count under setting [8] is listed as 6 of 6.

These data come from PubChem BioAssay AID330 (DTP/NCI, 2004).
